From US20170000805A1, “FOOD SUPPLEMENTATION COMPOSITION CONTAINING ONE OR MORE VITAMIN D3 COMPOUNDS AND ONE OR MORE MAGNESIUM SALTS” (DSM IP ASSETS B.V., priority 2006, published 2017)

Test: MgCl2 and Hy-D dosed into the rumen of fistulated cattle: urine pH, urine and blood plasma minerals
Format: in vivo
Settings: mature rumen fistulated cattle, treatment dosed daily into rumen over 2 weeks
Experimental: Four mature rumen fistulated cattle (approximately 600 kg […] in individual pens and offered 12 kg/day of good quality lucerne chaff throughout the experiment. After a 2 week adaptation to this diet the following treatments were applied daily over 2 weeks to each animal in a Latin Square Design: 1. no supplement (control) 2. […] 3. […]® 1.25% (5 mg 25-hydroxy vitamin D3) MgCl2 plus […]® 1.25 % Each treatment was dosed into the rumen through a cannula each morning during the 2 week experimental period. […] Urine pH was measured at time of collection; blood plasma was decanted after centrifugation and analyzed for calcium, magnesium, potassium, sodium and phosphorus by inductively coupled plasma atomic emission spectrophotometry. The results were analysed as a latin square design making comparisons between treatments after removal of any animal or period effects. The lucerne […] assayed for macro cations together with chloride and sulphur concentrations.

[Cl-].[Cl-].[Mg+2] [Mg, magnesium chloride]
Liveweight (12 kg/day lucerne chaff): 602 kg
Feed Intake: 11.8 kg/day
